Experiment [1] has as its target PTCD1 (PPR-containing protein-1) expressed in 293T cells (human) (UniProt O75127). The experiment can be described thus: co-IP; only the binder purified.
The target in experiment [2] is human Beclin-1 (Myc tag) expressed in cells (human) (UniProt Q14457). Briefly: co-IP; only the binder purified.

The chains behind the UniProt entries cited, without tags or fusion partners. Residues count along the entry.
UniProt O75127: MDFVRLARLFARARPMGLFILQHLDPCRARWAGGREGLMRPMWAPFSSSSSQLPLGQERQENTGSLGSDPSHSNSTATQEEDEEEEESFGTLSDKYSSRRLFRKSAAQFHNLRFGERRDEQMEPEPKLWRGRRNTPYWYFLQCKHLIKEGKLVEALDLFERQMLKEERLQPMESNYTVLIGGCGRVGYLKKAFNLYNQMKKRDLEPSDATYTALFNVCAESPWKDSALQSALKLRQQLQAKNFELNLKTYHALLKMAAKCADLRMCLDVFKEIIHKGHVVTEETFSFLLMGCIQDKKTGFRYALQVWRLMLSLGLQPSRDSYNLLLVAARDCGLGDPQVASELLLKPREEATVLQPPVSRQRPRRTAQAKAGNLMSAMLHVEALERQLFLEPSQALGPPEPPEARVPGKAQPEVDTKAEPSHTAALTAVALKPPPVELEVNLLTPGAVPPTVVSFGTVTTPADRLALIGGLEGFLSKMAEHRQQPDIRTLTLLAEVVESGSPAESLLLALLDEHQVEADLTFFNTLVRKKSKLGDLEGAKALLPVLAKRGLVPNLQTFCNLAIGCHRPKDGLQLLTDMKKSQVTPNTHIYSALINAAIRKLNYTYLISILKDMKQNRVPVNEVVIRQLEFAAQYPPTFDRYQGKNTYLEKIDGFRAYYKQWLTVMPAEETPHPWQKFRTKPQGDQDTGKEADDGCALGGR
UniProt Q14457: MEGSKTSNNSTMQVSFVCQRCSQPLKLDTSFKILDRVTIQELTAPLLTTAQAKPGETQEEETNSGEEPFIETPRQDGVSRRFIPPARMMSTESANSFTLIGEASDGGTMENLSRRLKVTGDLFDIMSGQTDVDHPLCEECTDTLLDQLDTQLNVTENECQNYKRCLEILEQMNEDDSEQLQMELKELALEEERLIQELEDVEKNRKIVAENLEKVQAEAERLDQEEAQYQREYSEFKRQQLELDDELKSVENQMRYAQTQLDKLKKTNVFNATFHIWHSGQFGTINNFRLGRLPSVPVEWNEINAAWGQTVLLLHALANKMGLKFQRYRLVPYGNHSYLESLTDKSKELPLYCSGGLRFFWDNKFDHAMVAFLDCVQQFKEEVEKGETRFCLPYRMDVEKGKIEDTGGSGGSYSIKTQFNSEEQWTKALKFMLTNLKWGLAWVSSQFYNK
UniProt A0A1S4EWW7, residues 22-255: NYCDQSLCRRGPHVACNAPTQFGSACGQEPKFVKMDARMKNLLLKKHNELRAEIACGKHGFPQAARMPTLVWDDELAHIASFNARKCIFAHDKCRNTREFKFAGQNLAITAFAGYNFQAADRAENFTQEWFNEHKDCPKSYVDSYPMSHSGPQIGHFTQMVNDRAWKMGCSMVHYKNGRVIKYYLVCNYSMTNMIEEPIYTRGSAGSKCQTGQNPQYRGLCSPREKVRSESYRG

Results are given in words; binding and its absence hold for the method and conditions named. In cells and extracts the contact can be indirect.

Regarding “Aedes aegypti venom allergen-1 (AaVA-1), recombinant, from Drosophila S2 cells (from UniProt A0A1S4EWW7 22-255)”, the binding entry in experiment [1] and in experiment [2] was “no binding” in each case.
